This note sets out measurements from paper PMC5854136.

Amino acid sequences for entries named in this document (tags omitted).
UniProt Q9LN01: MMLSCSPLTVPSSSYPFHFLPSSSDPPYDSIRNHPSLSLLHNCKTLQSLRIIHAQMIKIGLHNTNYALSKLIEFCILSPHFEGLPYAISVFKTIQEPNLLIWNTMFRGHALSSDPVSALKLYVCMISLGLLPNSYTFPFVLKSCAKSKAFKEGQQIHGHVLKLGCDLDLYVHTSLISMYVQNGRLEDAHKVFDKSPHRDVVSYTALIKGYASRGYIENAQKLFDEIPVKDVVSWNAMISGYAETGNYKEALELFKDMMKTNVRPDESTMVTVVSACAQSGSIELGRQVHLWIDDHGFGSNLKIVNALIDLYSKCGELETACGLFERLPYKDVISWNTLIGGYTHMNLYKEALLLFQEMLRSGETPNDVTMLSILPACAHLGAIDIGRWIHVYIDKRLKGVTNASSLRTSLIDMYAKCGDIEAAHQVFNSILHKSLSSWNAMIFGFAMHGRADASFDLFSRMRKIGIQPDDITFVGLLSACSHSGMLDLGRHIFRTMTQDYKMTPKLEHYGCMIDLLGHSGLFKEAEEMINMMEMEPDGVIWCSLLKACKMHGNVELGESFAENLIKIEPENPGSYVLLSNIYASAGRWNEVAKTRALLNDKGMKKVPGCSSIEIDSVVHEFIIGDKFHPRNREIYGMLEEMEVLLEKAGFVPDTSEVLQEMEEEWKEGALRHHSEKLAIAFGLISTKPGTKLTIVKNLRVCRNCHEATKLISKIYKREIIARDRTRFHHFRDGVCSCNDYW

Results are given in words; binding and its absence hold for the method and conditions named. A result given as binding can be weak or reduced; the word gives no strength. Sequences can lack the tags named with a protein. For part of these data: In cells and extracts the contact can be indirect.

To fix the notation:
B1: MORF8-eYNE (N-terminal YFP fusion of MORF8) (protein, UniProt Q9LKA5 57-395)
chain: GGLVSVKGLSTQATSSSLNDPNPNWSNRPPKETILLDGCDFEHWLVVVEPPQGEPTRDEIIDSYIKTLAQIVGSEDEARMKIYSVSTRCYYAFGALVSEDLSHKLKELSNVRWVLPDSYLDVRNKDYGGEPFIDGKAVPYDPKYHEEWIRNNARANERNRRNDRPRNNDRSRNFERRRENMAGGPPPQRPPMGGPPPPPHIGGSAPPPPHMGGSAPPPPHMGQNYGPPPPNNMGGPRHPPPYGAPPQNNMGGPRPPQNYGGTPPPNYGGAPPANNMGGAPPPNYGGGPPPQYGAVPPPQYGGAPPQNNNYQQQGSGMQQPQYQNNYPPNRDGSGNPYQG
B2: MORF9-eYNE (N-terminal YFP fusion of MORF9) (protein, UniProt Q9LPZ1 59-232)
chain: AATVDSDYSSKRSNSNEQRETIMLPGCDYNHWLIVMEFPKDPAPSRDQMIDTYLNTLATVLGSMEEAKKNMYAFSTTTYTGFQCTIDEETSEKFKGLPGVLWVLPDSYIDVKNKDYGGDKYINGEIIPCTYPTYQPKQRNNTKYQSKRYERKRDGPPPPEQRKPRQEPAASDSS
B3: OZ1, GAL4 activation domain fusion (pAD-OZ1) (protein, UniProt Q8S9K3 1-758)
chain: MNNSTRLISLFSPHPPPLFLLRGLYISRIANLRRFHRRAFPPSSVASTNLCSFRPLVSLPPLIPTFPIGRFYNHQVRVSAADFVPSYHNQQLPEWTELLQSLSKAGYFSDSGSISGLESEFFPGFPDELLRPALACLALARERPELLEMLSRRDVEVLVENGKPFLFKTGPDSLKRMSLYLRSGLQGIGKLMDMEKASTVDLMRLILSYVVDVASSEESKQHNKEIMESSVRSLLSQIAKMSLRPPESNVHDTMQNQYSDRDGQGVRSFQNNVEMKRGDWICSRCSGMNFARNVKCFQCDEARPKRQLTGSEWECPQCDFYNYGRNVACLRCDCKRPRDSSLNSANSDYSSDPELERRLVENEKKAQRWLSKVAQGGSDANSVDTDEDFPEIMPLRKGVNRYVVSTRKPPLERRLANTENRVATDGNSKRSDDNALGSKTTRSLNEILGSSSSLTSRSDDKNVSSRRFESSQGINTDFVPFVPLPSDMFAKKPKEETQIGLIDNIQVDGFSGGNQNVYQEDKSDANHSGKETDRLEKEDHKSEEPARWFKRVTELHNVSDLESAIPQEISPEKMPMRKGENRFVVSRKKDRSLTSPAYKRPEDSDFVPFVPFPPDYFAKEKQPKESIDTLPAPATENVSQVVQQEPREPSINKSDTVAVKIRNGKSLEGSLVKESDLLDMSEEAKAERWFKRVAEIKNISELSEIPDEDFPSIMPMRKGVNRFVVSKRKTPLERRLTSQRHQRNPHITNSDPTGKGDK
B4: ORRM1, GAL4 activation domain fusion (pAD-ORRM1) (protein, UniProt Q8L440 1-374)
chain: MEALIASTSFFVPISNSSSSHIINNRFFPSFYSPNLNFGTFRKTSLSSSHLVFSSSAISAPPSSTVLTRNSYWMVLLDKPPHWVSSKSAMVDYYVEILAKVLGNEKDAQVSIYDASFDTHFGFCCHIDEDASRQLASLPGVVSIRPEQDYSSEKKNYGIGSHKGVSLFDHGTVKHWMVRIDKPGVGIVTKAQMVDHCVQLLSKVLWNEKDAQMCLYHVSWQSDFGFCCDLDERSAVELAGVPGVLAVVPDNSFESLNKDYEGDSTQDSRDQDDSESPPVKTKKLFITGLSFYTSEKTLRAAFEGFGELVEVKIIMDKISKRSKGYAFLEYTTEEAAGTALKEMNGKIINGWMIVVDVAKTKPFRQNRSQPSFGL
B5: MORF2, GAL4 activation domain fusion (pAD-ORF2 as printed) (protein, UniProt O22793 1-219)
chain: MALPLSGTRHLTRALLSNVTLMAPPRIPSSVHYGGSRLGCSTRFFSIRCGANRSGSTYSPLNSGSNFSDRPPTEMAPLFPGCDYEHWLIVMDKPGGEGATKQQMIDCYIQTLAKVVGSEEEAKKRIYNVSCERYLGFGCEIDEETSTKLEGLPGVLFVLPDSYVDPENKDYGAELFVNGEIVQRSPERQRRVEPQPQRAQDRPRYNDRTRYSRRRENTR
B6: MORF8, GAL4 activation domain fusion (pAD-MORF8) (protein, UniProt Q9LKA5 1-395)
chain: MATHTISRSILCRPAKSLSFLFTRSFASSAPLAKSPASSLLSRSRPLVAAFSSVFRGGLVSVKGLSTQATSSSLNDPNPNWSNRPPKETILLDGCDFEHWLVVVEPPQGEPTRDEIIDSYIKTLAQIVGSEDEARMKIYSVSTRCYYAFGALVSEDLSHKLKELSNVRWVLPDSYLDVRNKDYGGEPFIDGKAVPYDPKYHEEWIRNNARANERNRRNDRPRNNDRSRNFERRRENMAGGPPPQRPPMGGPPPPPHIGGSAPPPPHMGGSAPPPPHMGQNYGPPPPNNMGGPRHPPPYGAPPQNNMGGPRPPQNYGGTPPPNYGGAPPANNMGGAPPPNYGGGPPPQYGAVPPPQYGGAPPQNNNYQQQGSGMQQPQYQNNYPPNRDGSGNPYQG
B7: MORF9, GAL4 activation domain fusion (pAD-MORF9) (protein, UniProt Q9LPZ1 1-232)
chain: MASFTTTSSSSLLLKTLLPVSHLNRFSTLSGIRVGDSWTPLLRNISTAGSRRRVAIVKAATVDSDYSSKRSNSNEQRETIMLPGCDYNHWLIVMEFPKDPAPSRDQMIDTYLNTLATVLGSMEEAKKNMYAFSTTTYTGFQCTIDEETSEKFKGLPGVLWVLPDSYIDVKNKDYGGDKYINGEIIPCTYPTYQPKQRNNTKYQSKRYERKRDGPPPPEQRKPRQEPAASDSS
B8: PPO1, GAL4 activation domain fusion (pAD-PPO1) (protein, UniProt P55826 1-537)
chain: MELSLLRPTTQSLLPSFSKPNLRLNVYKPLRLRCSVAGGPTVGSSKIEGGGGTTITTDCVIVGGGISGLCIAQALATKHPDAAPNLIVTEAKDRVGGNIITREENGFLWEEGPNSFQPSDPMLTMVVDSGLKDDLVLGDPTAPRFVLWNGKLRPVPSKLTDLPFFDLMSIGGKIRAGFGALGIRPSPPGREESVEEFVRRNLGDEVFERLIEPFCSGVYAGDPSKLSMKAAFGKVWKLEQNGGSIIGGTFKAIQERKNAPKAERDPRLPKPQGQTVGSFRKGLRMLPEAISARLGSKVKLSWKLSGITKLESGGYNLTYETPDGLVSVQSKSVVMTVPSHVASGLLRPLSESAANALSKLYYPPVAAVSISYPKEAIRTECLIDGELKGFGQLHPRTQGVETLGTIYSSSLFPNRAPPGRILLLNYIGGSTNTGILSKSEGELVEAVDRDLRKMLIKPNSTDPLKLGVRVWPQAIPQFLVGHFDILDTAKSSLTSSGYEGLFLGGNYVAGVALGRCVEGAYETAIEVNNFMSRYAYK

One assay has as its target WTG1-eYCE (C-terminal YFP fusion of WTG1) (Arabidopsis thaliana). Nature of the assay: split reporter; BiFC: eYNE and eYCE fusions co-expressed in Nicotiana benthamiana leaves by A. tumefaciens infiltration; confocal imaging after 48 h; YFP fluorescence in chloroplasts.
On to B1, for which the binding result is listed as “binds”.

B2: the binding entry was “binds”.

A further assay has as its target WHITE TO GREEN1 (WTG1), GAL4 DNA binding domain fusion (pBD-WTG1) (Arabidopsis thaliana) (UniProt F4KJ01). Description: two-hybrid; pGBKT7-WTG1 (GAL4 BD) cotransformed with pGADT7 (GAL4 AD) fusions into yeast strain AH109; growth on SD/-Trp-Leu-His plates indicates interaction.
Take “OTP82, GAL4 activation domain fusion (pAD-OTP82) (from UniProt Q9LN01 1-741)”: the binding entry was “no binding”.

Take B3: the binding entry was “no binding”.

In the case of B4, the binding result is recorded as “no binding”.

As for B5, the binding entry is “no binding”.

Consider B6, for which the binding result was “binds”.

Regarding B7, the binding result is recorded as “binds”.

Consider B8, for which the binding result is on record as “no binding”.
